In the experiment the target is PARP7 enzyme (Homo sapiens (Human), UniProt Q7Z3E1). Briefly: PARP7 enzymatic experiment (HTRF assay). The settings on record: read-out: PARP7 Enzyme (IC50 μM), 4PL fit. The format is biochemical.

The chains behind the UniProt entries cited, without tags or fusion partners. Residues count along the entry.
UniProt Q7Z3E1, 456-657 limits assumed: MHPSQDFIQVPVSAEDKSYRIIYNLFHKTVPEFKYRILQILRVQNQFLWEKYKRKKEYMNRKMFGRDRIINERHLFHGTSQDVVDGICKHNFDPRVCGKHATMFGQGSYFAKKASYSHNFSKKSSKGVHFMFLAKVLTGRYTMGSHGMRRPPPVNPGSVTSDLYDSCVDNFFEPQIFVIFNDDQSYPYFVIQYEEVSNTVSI

Not every entry of the source has a single result; some have several. This is not the full list of results. There may be further records. Values given together read as repeated measurements on other runs, samples or individuals.

Consider `CC1CC2CN(C(=O)CCOC[C@H](C)Nc3cn[nH]c(=O)c3C(F)(F)F)CCN2c2ncc(C(F)(F)F)cc2O1` (single isomer, unassigned) [Compound 62B], for which the concentration for half-maximal inhibition (IC50) is 8.19 nM and 41.5 nM.

In general, IC50 refers to the midpoint of a concentration-inhibition curve.

Values taken from patent publication US20240336629A1, “Tricyclic Derivatives Useful As PARP7 Inhibitors” (JACOBIO PHARMACEUTICALS CO., LTD., priority 2021, published 2024).
